PubChem BioAssay AID743121 | NCATS, 2013
Assay: 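Partners whose loss is lethal together with topoisomerase I blockade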 (primary screen). System: MDA-MB-231 cells, a human breast cancer line. Reagents: single siRNA against human genes, 20 nM siRNA (0.8 pmol per well). Timing: 120 h (drug added 48 h after transfection, read 72 h later). Conditions: camptothecin 20 nM (about EC30) for 72 h; vehicle 0.1% DMSO in parallel plates. Detection: 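CellTiter-Glo ATP signal, scaled to control siRNA as percent viability; sensitisation given as log2 of untreated divided by camptothecin-treated viability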. Scale: log2 vehicle/camptothecin viability: higher = stronger sensitisation to camptothecin; viability with camptothecin and viability without drug: higher = more viable cells. Call rule: 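Active genes have an RSA gene-level p-value below 0.001, computed from the ratios of their separate siRNAs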.
This is one part, drawn at random, of about 26,000 reagents. Of all reagents, 167 (0.63%) are marked active. 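Calls are per gene from RSA p-values that are not deposited; an individual active-marked siRNA can sensitise only weakly.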 A number with no mark means an inactive call. The numbers tell different reagents against one gene apart.

gene,siRNA no.,log2 vehicle/camptothecin viability,viability with camptothecin (% of control),viability without drug (% of control)
NEK4 (NIMA related kinase 4),1,-0.682,96,59.8
NEK4 (NIMA related kinase 4),2,0.507,22.2,31.6
NEK4 (NIMA related kinase 4),3,-0.251,127,106
NEK4 (NIMA related kinase 4),4,0.15,1.21,1.34
TRIM60 (tripartite motif containing 60),1,-1.6,69.4,22.9
TRIM60 (tripartite motif containing 60),2,-0.201,100,87.4
TRIM60 (tripartite motif containing 60),3,-0.233,106,89.9
TRIM60 (tripartite motif containing 60),4,0.572,56.3,83.8
PRSS41 (serine protease 41),1,0.165,53,59.4
PRSS41 (serine protease 41),2,-0.101,110,103
PRSS41 (serine protease 41),3,-0.302,101,82.2
PRSS41 (serine protease 41),4,-0.0248,109,107
NUDCD1 (NudC domain containing 1),1,-0.309,97,78.3
NUDCD1 (NudC domain containing 1),2,-0.0269,63.9,62.7
NUDCD1 (NudC domain containing 1),3,0.0524,74,76.8
NUDCD1 (NudC domain containing 1),4,0.0521,85.3,88.4
PICALM (phosphatidylinositol binding clathrin assembly protein),1,-0.529,101,69.9
PICALM (phosphatidylinositol binding clathrin assembly protein),2,-0.562,108,73.1
PICALM (phosphatidylinositol binding clathrin assembly protein),3,-0.103,105,98
PICALM (phosphatidylinositol binding clathrin assembly protein),4,-0.507,89.1,62.7
OAT (ornithine aminotransferase),1,0.519,57.5,82.4
OAT (ornithine aminotransferase),2,-0.298,98.8,80.4
OAT (ornithine aminotransferase),3,-0.579,83.3,55.8
HSPE1 (heat shock protein family E (Hsp10) member 1),1,0.098,45.7,48.9
HSPE1 (heat shock protein family E (Hsp10) member 1),2,-0.667,64.1,40.4
HSPE1 (heat shock protein family E (Hsp10) member 1),3,-0.156,66.3,59.5
HSPE1 (heat shock protein family E (Hsp10) member 1),4,-0.665,85.7,54
SERPINI1 (serpin family I member 1),1,0.0744,81.3,85.6
SERPINI1 (serpin family I member 1),2,0.08,104,110
SERPINI1 (serpin family I member 1),3,0.297,16.4,20.1
SERPINI1 (serpin family I member 1),4,0.0035,96.2,96.4

2 entries from above, sorted by “viability with camptothecin (% of control)”, lowest first.
gene,siRNA no.,log2 vehicle/camptothecin viability,viability with camptothecin (% of control),viability without drug (% of control)
NUDCD1 (NudC domain containing 1),1,-0.309,97,78.3
PRSS41 (serine protease 41),4,-0.0248,109,107
